Melting temperature shift data for 27 targets are collected here from the supplement of paper PMC12595434, “Development of retinoid nuclear receptor pathway antagonists through targeting aldehyde dehydrogenase 1A3” (iScience, 2025).

Chains of the proteins cited; added tags and fusions are not shown. Lines headed by an entry give the natural chain unless they say otherwise; changes in a name come on top.
UniProt Q9UHD2: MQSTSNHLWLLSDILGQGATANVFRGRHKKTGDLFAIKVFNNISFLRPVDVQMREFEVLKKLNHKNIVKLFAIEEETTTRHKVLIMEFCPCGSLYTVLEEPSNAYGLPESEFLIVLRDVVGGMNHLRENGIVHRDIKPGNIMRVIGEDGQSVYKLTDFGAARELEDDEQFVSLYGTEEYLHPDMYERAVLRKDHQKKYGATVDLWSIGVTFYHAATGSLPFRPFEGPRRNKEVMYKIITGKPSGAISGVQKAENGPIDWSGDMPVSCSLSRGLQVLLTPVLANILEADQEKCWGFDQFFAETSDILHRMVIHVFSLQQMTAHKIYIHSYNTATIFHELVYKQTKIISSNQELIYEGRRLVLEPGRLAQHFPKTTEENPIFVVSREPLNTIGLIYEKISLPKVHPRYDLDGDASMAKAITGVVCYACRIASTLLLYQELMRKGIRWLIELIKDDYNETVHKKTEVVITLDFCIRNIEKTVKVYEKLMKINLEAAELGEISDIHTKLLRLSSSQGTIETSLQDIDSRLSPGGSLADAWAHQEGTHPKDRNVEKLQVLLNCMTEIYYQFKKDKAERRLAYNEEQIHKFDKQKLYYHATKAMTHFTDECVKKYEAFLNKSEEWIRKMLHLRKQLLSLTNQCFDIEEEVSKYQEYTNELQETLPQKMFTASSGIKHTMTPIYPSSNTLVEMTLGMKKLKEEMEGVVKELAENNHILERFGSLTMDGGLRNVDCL
UniProt Q9ULJ6: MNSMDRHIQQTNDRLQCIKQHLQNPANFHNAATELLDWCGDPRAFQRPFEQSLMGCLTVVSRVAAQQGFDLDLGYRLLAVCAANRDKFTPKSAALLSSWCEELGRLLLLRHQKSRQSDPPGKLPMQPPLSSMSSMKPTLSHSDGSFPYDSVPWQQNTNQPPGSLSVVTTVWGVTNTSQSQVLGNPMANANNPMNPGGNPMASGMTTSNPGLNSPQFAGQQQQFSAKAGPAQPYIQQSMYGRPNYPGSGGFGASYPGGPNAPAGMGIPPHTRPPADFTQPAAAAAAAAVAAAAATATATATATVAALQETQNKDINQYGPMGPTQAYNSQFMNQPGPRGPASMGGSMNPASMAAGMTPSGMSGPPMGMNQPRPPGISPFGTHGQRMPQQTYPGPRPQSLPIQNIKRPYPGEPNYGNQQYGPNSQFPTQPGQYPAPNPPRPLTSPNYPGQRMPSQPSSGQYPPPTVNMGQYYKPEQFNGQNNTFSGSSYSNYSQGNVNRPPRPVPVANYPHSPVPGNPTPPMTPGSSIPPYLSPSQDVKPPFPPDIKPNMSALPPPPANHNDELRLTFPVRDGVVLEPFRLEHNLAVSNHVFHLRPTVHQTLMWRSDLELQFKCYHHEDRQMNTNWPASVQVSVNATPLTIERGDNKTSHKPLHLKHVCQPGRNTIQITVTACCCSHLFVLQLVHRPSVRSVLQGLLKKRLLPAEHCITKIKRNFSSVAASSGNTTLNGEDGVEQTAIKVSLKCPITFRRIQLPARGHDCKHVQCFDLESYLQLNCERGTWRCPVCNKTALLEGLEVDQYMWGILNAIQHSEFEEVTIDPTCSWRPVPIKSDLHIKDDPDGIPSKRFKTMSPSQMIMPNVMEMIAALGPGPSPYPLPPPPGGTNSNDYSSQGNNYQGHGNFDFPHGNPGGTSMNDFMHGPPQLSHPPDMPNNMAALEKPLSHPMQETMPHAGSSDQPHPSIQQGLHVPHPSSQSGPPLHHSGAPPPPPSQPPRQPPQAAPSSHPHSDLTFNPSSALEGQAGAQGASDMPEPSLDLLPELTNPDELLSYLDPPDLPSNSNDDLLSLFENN
UniProt Q9UGI8: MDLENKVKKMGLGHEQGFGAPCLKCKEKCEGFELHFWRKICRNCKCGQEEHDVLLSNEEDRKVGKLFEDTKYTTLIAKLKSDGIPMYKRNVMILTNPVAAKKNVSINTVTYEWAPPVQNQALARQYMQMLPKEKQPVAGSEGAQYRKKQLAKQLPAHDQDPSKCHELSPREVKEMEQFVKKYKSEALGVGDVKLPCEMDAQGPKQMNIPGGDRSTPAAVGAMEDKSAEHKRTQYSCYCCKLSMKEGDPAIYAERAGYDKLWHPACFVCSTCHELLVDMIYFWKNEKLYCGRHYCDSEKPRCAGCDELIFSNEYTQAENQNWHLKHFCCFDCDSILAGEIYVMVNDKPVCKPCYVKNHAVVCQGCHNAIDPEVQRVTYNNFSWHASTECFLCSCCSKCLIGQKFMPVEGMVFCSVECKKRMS
UniProt Q9ULQ0: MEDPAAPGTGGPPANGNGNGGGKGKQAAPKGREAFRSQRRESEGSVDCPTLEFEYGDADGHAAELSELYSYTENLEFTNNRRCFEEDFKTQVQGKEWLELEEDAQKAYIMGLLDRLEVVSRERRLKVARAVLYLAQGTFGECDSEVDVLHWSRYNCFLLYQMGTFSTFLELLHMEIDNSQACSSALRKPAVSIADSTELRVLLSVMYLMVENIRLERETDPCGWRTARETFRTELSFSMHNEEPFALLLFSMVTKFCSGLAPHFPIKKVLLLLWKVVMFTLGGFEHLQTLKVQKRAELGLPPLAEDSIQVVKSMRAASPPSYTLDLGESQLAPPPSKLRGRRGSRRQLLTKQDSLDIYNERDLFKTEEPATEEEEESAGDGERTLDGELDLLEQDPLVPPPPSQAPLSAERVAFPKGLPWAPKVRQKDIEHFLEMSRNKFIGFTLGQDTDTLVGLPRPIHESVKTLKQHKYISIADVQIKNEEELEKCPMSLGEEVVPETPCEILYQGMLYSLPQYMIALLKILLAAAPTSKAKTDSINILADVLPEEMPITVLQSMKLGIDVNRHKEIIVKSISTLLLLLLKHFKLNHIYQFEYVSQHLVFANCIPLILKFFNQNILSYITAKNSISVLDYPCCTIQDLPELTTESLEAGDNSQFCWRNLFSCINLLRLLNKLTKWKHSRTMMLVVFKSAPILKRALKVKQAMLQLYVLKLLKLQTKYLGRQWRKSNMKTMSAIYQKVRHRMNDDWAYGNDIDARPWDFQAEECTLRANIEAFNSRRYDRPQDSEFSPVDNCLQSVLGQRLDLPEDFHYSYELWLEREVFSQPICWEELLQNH
UniProt Q9UIV1, whole entry: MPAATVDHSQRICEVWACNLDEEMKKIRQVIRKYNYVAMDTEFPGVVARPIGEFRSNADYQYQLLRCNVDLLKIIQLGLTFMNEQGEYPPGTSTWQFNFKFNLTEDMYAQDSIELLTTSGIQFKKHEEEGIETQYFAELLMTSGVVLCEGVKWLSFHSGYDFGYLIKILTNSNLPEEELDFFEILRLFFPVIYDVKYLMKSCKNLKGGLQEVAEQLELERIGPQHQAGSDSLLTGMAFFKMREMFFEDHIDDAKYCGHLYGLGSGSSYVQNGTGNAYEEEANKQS
UniProt Q9Y2I1: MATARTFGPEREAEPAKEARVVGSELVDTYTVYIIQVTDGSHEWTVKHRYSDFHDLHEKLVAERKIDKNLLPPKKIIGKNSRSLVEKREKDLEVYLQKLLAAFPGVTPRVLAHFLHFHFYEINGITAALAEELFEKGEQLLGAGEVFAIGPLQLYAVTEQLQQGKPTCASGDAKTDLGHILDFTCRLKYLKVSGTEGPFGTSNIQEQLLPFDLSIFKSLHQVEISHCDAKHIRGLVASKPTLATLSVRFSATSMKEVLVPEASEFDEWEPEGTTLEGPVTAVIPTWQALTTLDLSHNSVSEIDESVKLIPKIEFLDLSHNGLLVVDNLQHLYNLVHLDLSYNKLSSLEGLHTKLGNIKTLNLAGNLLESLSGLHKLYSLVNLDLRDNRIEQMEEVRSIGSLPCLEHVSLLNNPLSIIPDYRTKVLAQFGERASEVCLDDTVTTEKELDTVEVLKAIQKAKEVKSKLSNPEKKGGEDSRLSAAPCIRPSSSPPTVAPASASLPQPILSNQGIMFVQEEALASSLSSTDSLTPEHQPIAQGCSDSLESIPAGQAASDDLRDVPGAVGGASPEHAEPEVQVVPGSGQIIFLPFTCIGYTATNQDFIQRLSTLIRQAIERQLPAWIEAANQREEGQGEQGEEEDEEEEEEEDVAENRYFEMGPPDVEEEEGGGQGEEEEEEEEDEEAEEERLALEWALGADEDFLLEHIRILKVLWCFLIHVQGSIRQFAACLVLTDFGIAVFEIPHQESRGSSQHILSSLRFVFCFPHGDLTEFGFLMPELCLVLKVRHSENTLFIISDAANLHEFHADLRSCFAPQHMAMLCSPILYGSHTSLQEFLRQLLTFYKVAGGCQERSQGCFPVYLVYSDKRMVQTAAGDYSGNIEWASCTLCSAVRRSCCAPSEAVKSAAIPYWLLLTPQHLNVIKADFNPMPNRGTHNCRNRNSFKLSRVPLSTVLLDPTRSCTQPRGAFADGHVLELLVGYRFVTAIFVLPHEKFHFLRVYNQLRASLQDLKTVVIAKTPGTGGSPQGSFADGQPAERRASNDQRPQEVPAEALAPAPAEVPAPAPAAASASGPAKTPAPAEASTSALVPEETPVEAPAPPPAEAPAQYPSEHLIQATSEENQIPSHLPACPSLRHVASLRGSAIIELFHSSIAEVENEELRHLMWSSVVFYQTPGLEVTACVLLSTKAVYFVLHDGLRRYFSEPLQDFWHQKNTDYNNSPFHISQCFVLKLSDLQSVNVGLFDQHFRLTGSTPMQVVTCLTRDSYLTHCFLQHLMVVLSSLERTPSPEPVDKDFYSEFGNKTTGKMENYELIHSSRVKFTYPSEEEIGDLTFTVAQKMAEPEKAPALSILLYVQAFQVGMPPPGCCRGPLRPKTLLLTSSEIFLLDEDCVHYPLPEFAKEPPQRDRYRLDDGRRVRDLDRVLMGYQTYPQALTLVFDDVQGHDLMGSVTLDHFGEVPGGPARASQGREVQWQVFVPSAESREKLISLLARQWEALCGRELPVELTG
UniProt Q9UPW5: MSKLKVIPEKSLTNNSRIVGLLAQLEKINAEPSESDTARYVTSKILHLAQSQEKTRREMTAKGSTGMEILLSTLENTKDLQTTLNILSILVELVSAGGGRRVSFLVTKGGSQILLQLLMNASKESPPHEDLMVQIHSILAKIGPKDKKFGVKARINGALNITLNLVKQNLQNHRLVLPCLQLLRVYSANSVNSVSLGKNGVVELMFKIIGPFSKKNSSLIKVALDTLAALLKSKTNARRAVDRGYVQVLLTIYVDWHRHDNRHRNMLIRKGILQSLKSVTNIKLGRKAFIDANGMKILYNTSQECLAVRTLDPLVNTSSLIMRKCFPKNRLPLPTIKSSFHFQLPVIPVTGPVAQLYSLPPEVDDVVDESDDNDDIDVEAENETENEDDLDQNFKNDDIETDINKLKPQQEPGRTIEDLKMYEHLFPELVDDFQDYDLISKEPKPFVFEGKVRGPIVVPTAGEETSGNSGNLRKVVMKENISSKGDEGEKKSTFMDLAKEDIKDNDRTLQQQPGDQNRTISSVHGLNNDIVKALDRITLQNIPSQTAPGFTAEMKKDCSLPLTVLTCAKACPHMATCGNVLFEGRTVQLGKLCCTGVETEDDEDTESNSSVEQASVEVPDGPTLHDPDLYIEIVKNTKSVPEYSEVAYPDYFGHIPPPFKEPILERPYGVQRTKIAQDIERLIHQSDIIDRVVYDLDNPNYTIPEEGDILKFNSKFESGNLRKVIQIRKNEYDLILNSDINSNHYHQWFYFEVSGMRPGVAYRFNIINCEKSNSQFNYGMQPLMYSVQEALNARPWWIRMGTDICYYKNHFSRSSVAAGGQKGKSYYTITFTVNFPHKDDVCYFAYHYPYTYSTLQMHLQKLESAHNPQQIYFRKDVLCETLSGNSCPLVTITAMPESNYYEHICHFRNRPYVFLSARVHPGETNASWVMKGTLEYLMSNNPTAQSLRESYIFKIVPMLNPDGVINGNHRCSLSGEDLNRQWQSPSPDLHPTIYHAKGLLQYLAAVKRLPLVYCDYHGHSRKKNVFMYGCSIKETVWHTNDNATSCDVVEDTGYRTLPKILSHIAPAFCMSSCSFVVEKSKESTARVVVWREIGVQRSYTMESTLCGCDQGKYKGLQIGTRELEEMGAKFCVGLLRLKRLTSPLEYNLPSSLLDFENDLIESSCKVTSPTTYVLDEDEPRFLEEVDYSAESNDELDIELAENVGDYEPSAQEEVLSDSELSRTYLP
UniProt Q9UKD1: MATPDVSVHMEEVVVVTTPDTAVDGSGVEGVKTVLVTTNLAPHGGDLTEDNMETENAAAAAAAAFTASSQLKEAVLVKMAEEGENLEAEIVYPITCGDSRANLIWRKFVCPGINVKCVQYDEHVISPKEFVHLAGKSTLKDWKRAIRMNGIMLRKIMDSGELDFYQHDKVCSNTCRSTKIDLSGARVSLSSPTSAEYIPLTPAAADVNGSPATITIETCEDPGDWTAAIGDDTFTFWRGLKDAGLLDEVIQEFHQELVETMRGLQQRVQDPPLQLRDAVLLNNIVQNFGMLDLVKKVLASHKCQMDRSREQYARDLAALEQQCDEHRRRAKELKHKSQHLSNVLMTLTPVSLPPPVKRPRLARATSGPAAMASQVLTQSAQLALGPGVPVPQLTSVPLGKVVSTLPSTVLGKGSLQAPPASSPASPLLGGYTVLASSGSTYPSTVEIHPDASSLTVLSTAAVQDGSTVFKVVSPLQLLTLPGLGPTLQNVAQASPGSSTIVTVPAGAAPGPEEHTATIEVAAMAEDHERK

The other results are listed elsewhere or left out. The data scatter; read single values as rough.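 Tm was set to 64 °C where no melting was found, and many curves are irregular.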

Compound in this test: CCc1cnccc1C(=O)Nc1cc2c(cc1F)NC(=O)CC2
Kind of test: melting temperature shift (DMSO Tm minus MBE1-treated Tm) in cellular thermal proteome profiling; higher = less thermal stabilization by MBE1 (negative = stabilized by MBE1). The settings on record: A375.

With TBK1 (UniProt Q9UHD2), the melting temperature shift (MBE1 concentration: 100 nM) is -0.979 °C and the melting temperature shift (MBE1 concentration: 1 uM) was -0.4 °C.

As to UniProt Q9ULJ6, the melting temperature shift (MBE1 concentration: 100 nM) is -0.448 °C and the melting temperature shift (MBE1 concentration: 1 uM) was -0.501 °C.

Turning to TES (UniProt Q9UGI8), the melting temperature shift is, setting by setting: (MBE1 concentration: 100 nM) 0.409 °C; (MBE1 concentration: 1 uM) 11.4 °C.

Consider UniProt Q9UQ49, for which the melting temperature shift is 0.122 °C (MBE1 concentration: 100 nM) and -0.701 °C (MBE1 concentration: 1 uM).

On to UniProt Q9UQ88, for which the melting temperature shift was -0.418 °C (MBE1 concentration: 100 nM) and -0.874 °C (MBE1 concentration: 1 uM).

Take UniProt Q9ULQ0: the melting temperature shift by setting is: (MBE1 concentration: 100 nM) 0.0122 °C; (MBE1 concentration: 1 uM) 0.171 °C.

For UniProt Q9UJT1, the melting temperature shift reads like this: (MBE1 concentration: 100 nM) 1.06 °C; (MBE1 concentration: 1 uM) 0.745 °C.

Take CNOT7 (UniProt Q9UIV1): the melting temperature shift is -0.0733 °C (MBE1 concentration: 100 nM) and -0.519 °C (MBE1 concentration: 1 uM).

For the target NRBP1 (UniProt Q9UHY1), the melting temperature shift was -0.281 °C (MBE1 concentration: 100 nM) and 0.189 °C (MBE1 concentration: 1 uM).

For UniProt Q9UKK6, the melting temperature shift (MBE1 concentration: 100 nM) was -0.448 °C and the melting temperature shift (MBE1 concentration: 1 uM) was -0.48 °C.

In the case of DLGAP4 (UniProt Q9Y2H0), the melting temperature shift is, setting by setting: (MBE1 concentration: 100 nM) -1.04 °C; (MBE1 concentration: 1 uM) -0.269 °C.

With UniProt Q9ULE6, the melting temperature shift is, setting by setting: (MBE1 concentration: 100 nM) -0.376 °C; (MBE1 concentration: 1 uM) 0.376 °C.

Regarding TAOK2 (UniProt Q9UL54), the melting temperature shift reads like this: (MBE1 concentration: 100 nM) -1.36 °C; (MBE1 concentration: 1 uM) -1.52 °C.

With UniProt Q9Y2I1, the melting temperature shift was 1.47 °C (MBE1 concentration: 100 nM) and 0.94 °C (MBE1 concentration: 1 uM).

As for COG5 (UniProt Q9UP83), the melting temperature shift is, setting by setting: (MBE1 concentration: 100 nM) -0.852 °C; (MBE1 concentration: 1 uM) -1.91 °C.

On to UniProt Q9Y2E4, for which the melting temperature shift is, setting by setting: (MBE1 concentration: 100 nM) 0.479 °C; (MBE1 concentration: 1 uM) 2.02 °C.

As to UniProt Q9UPW5, the melting temperature shift (MBE1 concentration: 100 nM) was -0.872 °C and the melting temperature shift (MBE1 concentration: 1 uM) stood at 0.557 °C.

For UniProt Q9UH03, the melting temperature shift was -0.362 °C (MBE1 concentration: 100 nM) and -0.0201 °C (MBE1 concentration: 1 uM).

AGAP1 (UniProt Q9UPQ3): the melting temperature shift runs as follows: (MBE1 concentration: 100 nM) 0.806 °C; (MBE1 concentration: 1 uM) 0.672 °C.

In the case of BAIAP2 (UniProt Q9UQB8), the melting temperature shift reads like this: (MBE1 concentration: 100 nM) 0.714 °C; (MBE1 concentration: 1 uM) 0.751 °C.

For the target RABGEF1 (UniProt Q9UJ41), the melting temperature shift was determined as 0.537 °C (MBE1 concentration: 100 nM) and 0.177 °C (MBE1 concentration: 1 uM).

Regarding NUDC (UniProt Q9Y266), the melting temperature shift (MBE1 concentration: 100 nM) is -0.409 °C and the melting temperature shift (MBE1 concentration: 1 uM) was -0.503 °C.

Consider GMEB2 (UniProt Q9UKD1), for which the melting temperature shift by setting is: (MBE1 concentration: 100 nM) -0.308 °C; (MBE1 concentration: 1 uM) -1.03 °C.

Consider MTMR6 (UniProt Q9Y217), for which the melting temperature shift is 0.824 °C (MBE1 concentration: 100 nM) and -0.342 °C (MBE1 concentration: 1 uM).

With UniProt Q9UK13, the melting temperature shift (MBE1 concentration: 100 nM) was determined as 0.397 °C and the melting temperature shift (MBE1 concentration: 1 uM) worked out at 0.208 °C.

Regarding CNOT11 (UniProt Q9UKZ1), the melting temperature shift was 0.706 °C (MBE1 concentration: 100 nM) and -0.128 °C (MBE1 concentration: 1 uM).

For FNDC3A (UniProt Q9Y2H6), the melting temperature shift is, setting by setting: (MBE1 concentration: 100 nM) -1.19 °C; (MBE1 concentration: 1 uM) -0.781 °C.
